# Experimental data reported in article PMC8834516.
# These are yes or no findings as the source states them, for the method shown. In cells and extracts the contact can be indirect. These calls come from enrichment with a bait or labelling near it, and not all partners need be listed.
# T1: Transglutaminase-2 (mouse (endogenous in mouse brain)) (UniProt P21981)
# T1 sequence: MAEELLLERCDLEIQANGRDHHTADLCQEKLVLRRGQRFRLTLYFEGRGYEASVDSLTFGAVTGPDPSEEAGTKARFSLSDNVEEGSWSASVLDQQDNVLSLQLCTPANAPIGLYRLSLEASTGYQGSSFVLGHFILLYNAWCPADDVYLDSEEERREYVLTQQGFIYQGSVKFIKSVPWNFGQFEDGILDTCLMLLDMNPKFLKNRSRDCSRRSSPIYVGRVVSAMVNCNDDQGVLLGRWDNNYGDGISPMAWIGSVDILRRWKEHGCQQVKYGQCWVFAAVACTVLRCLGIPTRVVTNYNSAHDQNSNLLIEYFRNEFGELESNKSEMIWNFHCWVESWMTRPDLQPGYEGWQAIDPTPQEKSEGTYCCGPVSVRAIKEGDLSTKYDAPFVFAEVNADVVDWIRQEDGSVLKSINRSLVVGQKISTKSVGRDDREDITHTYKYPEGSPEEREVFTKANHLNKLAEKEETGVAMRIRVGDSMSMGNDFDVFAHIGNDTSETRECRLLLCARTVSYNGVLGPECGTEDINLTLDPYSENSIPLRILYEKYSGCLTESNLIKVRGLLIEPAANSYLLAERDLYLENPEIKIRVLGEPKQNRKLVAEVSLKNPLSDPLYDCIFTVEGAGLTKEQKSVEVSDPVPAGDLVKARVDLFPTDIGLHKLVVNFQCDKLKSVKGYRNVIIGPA
# Molecular target: T1, Transglutaminase-2 (mouse (endogenous in mouse brain))
# Test: affinity purification with mass spectrometry; TG2 immunoprecipitated from total brain homogenates of 18-month-old WT and APP23 mice with anti-TG2 antibody IA12 crosslinked to protein A/G magnetic beads, 22 h at 4 °C; IP lysis buffer 25 mM Tris pH 7.4, 150 mM NaCl, 1 mM EDTA, 1% NP40, 5% glycerol; on-bead trypsin digest, SWATH MS; TG2−/− cohorts as background, z-test p ≤ 0.05, n = 5 per cohort
row,Binder,binding
1,"Glutamate receptor ionotropic, delta-2 (protein, UniProt Q61625 24-1007) DSIIHIGAIFDESAKKDDEVFRTAVGDLNQNEEILQTEKITFSVTFVDGNNPFQAVQEACELMNQGILALVSSIGCTSAGSLQSLADAMHIPHLFIQRSTAGTPRSGCGLTRSNRNDDYTLSVRPPVYLNEVILRVVTEYAWQKFIIFYDSEYDIRGIQEFLDKVSQQGMDVALQKVENNINKMITTLFDTMRIEELNRYRDTLRRAILVMNPATAKSFISEVVETNLVAFDCHWIIINEEINDVDVQELVRRSIGRLTIIRQTFPVPQNISQRCFRGNHRISSSLCDPKDPFAQNMEISNLYIYDTVLLLANAFHKKLEDRKWHSMASLSCIRKNSKPWQGGRSMLETIKKGGVNGLTGDLEFGENGGNPNVHFEILGTNYGEELGRGVRKLGCWNPVTGLNGSLTDKKLENNMRGVVLRVVTVLEEPFVMVSENVLGKPKKYQGFSIDVLDALSNYLGFNYEIYVAPDHKYGSPQEDGTWNGLVGELVFKRADIGISALTITPDRENVVDFTTRYMDYSVGVLLRRAEKTVDMFACLAPFDLSLWACIAGTVLLVGLLVYLLNWLNPPRLQMGSMTSTTLYNSMWFVYGSFVQQGGEVPYTTLATRMMMGAWWLFALIVISSYTANLAAFLTITRIESSIQSLQDLSKQTDIPYGTVLDSAVYQHVRMKGLNPFERDSMYSQMWRMINRSNGSENNVLESQAGIQKVKYGNYAFVWDAAVLEYVAINDPDCSFYTVGNTVADRGYGIALQHGSPYRDVFSQRILELQQSGDMDILKHKWWPKNGQCDLYSSVDAKQKGGALDIKSLAGVFCILAAGIVLSCLIAVLETWWSRRKGSRVPSKEDDKEIDLEHLHRRVNSLCTDDDSPHKQFSTSSIDLTPLDIDTLPTRQALEQISDFRNTHITTTTFIPEQIQTLSRTLSAKAASGFAFGSVPEHRTGPFRHRAPNGGFFRSPIKTMSSIPYQPTPTLGLNLGNDPDRGTSI",binds
2,"PRA1 family protein 3 (protein, UniProt Q8R5J9 1-188) MDVNLAPLRAWDDFFPGSDRFARPDFRDISKWNNRVVSNLLYYQTNYLVVAAMMISVVGFLSPFNMILGGVIVVLVFMGFVWAAHNKDILRRMKKQYPTAFVMVVMLASYFLISMFGGVMVFVFGITLPLLLMFIHASLRLRNLKNKLENKMEGIGLKKTPMGIILDALEQQEDNINKFADYISKARE",binds
3,"NSFL1 cofactor p47 (protein, UniProt Q9CZ44 1-370) MAEERQDALREFVAVTGTEEDRARFFLESAGWDLQIALASFYEDGGDEDIVTISQATPSSVSRGTAPSDNRVTSFRDLIHDQDEEEEEEEGQRFYAGGSERSGQQIVGPPRKKSPNELVDDLFKGAKEHGAVAVERVTKSPGETSKPRPFAGGGYRLGAAPEEESAYVAGERRRHSGQDVHVVLKLWKTGFSLDNGDLRSYQDPSNAQFLESIRRGEVPAELRRLAHGGQVNLDMEDHRDEDFVKPKGAFKAFTGEGQKLGSTAPQVLNTSSPAQQAENEAKASSSILINEAEPTTNIQIRLADGGRLVQKFNHSHRISDIRLFIVDARPAMAATSFVLMTTFPNKELADENQTLKEANLLNAVIVQRLT",binds
4,"Secretogranin-2 (protein, UniProt Q03517 31-617) QRNQLLQKEPDLRLENVQKFPSPEMIRALEYIEKLRQQAHREESSPDYNPYQGVSVPLQLKENGEESHLAESSRDALSEDEWMRIILEALRQAENEPPSAPKENKPYALNLEKNFPVDTPDDYETQQWPERKLKHMRFPLMYEENSRENPFKRTNEIVEEQYTPQSLATLESVFQELGKLTGPSNQKRERVDEEQKLYTDDEDDVYKTNNIAYEDVVGGEDWSPIEEKIETQTQEEVRDSKENTEKNEQINEEMKRSGQLGLPDEENRRESKDQLSEDASKVITYLRRLVNAVGSGRSQSGPNGDRAARLLQKPLDSQSIYQLIEISRNLQIPPEDLIEMLKAGEKPNGLVEPEQDLELAVDLDDIPEADLDRPDMFQSKMLSKGGYPKAPGRGMVEALPDGLSVEDILNVLGMENVVNQKSPYFPNQYSQDKALMRLPYGPGKSRANQIPKVAWIPDVESRQAPYENLNDQELGEYLARMLVKYPELLNTNQLKRVPSPVSSEDDLQEEEQLEQAIKEHLGPGSSQEMERLAKVSKRIPVGSLKNEDTPNRQYLDEDMLLKVLEYLNQEQAEQGREHLAKRAMENM",binds
